# Reference: PubChem BioAssay AID588590 (National Center for Advancing Translational Sciences (NCATS), 2011)
# Protein sequences, listed by entry. Tags and fused reporters are not part of them. Lines headed by an entry give the natural chain unless they say otherwise; changes in a name come on top.
# UniProt Q9UNA4: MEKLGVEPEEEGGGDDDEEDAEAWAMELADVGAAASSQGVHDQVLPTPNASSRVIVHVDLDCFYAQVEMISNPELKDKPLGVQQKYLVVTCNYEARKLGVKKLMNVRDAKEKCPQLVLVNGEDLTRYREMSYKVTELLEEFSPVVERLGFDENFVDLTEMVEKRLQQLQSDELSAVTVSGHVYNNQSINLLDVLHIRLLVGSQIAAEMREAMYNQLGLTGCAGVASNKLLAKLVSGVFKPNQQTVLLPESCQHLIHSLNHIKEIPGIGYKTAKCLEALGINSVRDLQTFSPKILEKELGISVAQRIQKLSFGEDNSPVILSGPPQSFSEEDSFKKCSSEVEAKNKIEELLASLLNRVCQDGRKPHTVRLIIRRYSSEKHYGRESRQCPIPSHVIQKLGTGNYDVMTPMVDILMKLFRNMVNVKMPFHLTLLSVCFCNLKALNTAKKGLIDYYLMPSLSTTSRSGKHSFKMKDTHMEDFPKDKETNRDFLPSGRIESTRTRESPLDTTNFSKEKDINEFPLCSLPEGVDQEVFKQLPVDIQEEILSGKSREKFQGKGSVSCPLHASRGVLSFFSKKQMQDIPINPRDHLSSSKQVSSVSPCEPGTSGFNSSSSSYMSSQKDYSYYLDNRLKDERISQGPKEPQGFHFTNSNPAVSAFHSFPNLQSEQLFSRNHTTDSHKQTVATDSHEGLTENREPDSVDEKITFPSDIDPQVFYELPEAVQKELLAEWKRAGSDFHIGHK
# Out of some 390,000 compounds screened, about 4,000 (1%) were called active. Inconclusive results, whose numbers are uncertain, are shown with a selection of clear calls. Calls follow the shape of the dose curve; as a rule, active = well fitted inhibition curve with a large enough effect; inconclusive = small, poorly fitted or top-dose-only effect, or another doubt; inactive = no such curve, though single readings can be large or run the other way. Potencies beside an inconclusive call are fits to weak or partial responses and may not hold up.
# Molecular target: DNA polymerase iota (Homo sapiens) (UniProt Q9UNA4)
# Test: qHTS for Inhibitors of Polymerase Iota
# Conditions: Pol iota fluorescent replication assay, 10 min; series mostly up to 115 µM
# Procedure, shortened: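 Fluorescent replication assay read twice, at 0 min and 10 min after adding 50 nM (final) substrate. Enzyme (10 nM) and compounds were first incubated 15 min at room temperature; enzyme-free buffer wells were negative controls.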
# Potency is read from the fitted curve at half-maximal effect.
row,Compound,Potency
1,NC(=O)c1c(NC(NC(=O)c2ccco2)C(=O)c2ccc(Cl)cc2)sc2c1CCCC2 (stereo unspecified),"inconclusive: 22.4 µM [inhibitor, single point]"
2,C/C(CC(=O)C(F)(F)F)=N\NC(=O)/C(C#N)=C/N(C)C,"inconclusive: 7.08 µM [inhibitor, full curve, poor fit]"
3,Cc1cccc(C(=O)NC(=S)NNC(=O)c2ccccc2Cl)c1,inactive
4,CN(CC(=O)NCc1ccccc1)S(=O)(=O)c1ccc2[nH]c3c(c2c1)CCCC3,"inconclusive: 70.8 µM [inhibitor, single point]"
5,O=C(O)C1Nc2ccc(Br)cc2C2C=CCC12 (stereo unspecified),"inconclusive: 1.78 µM [inhibitor, full curve, poor fit]"
6,Cc1ccc(CNC(=O)C(=O)NCC2OCCN2C(=O)c2ccc3c(c2)OCO3)cc1 (stereo unspecified),"inconclusive: 89.1 µM [inhibitor, single point]"
7,N#Cc1nc(-c2ccccc2F)oc1NCc1cccc2c1OCO2,"inconclusive: 50.1 µM [inhibitor, partial curve, poor fit]"
8,N#CC(C#N)=C1C=C2C=C(N3CCCCC3)CCC2CC1 (stereo unspecified),"inconclusive: 15.8 µM [inhibitor, full curve, poor fit]"
9,CCOC(=O)/C=C/c1ccc2c(c1)S(=O)(=O)N(C1CCCC1)[C@H]2CC(=O)OCC,inactive
10,O=S1(=O)NC2c3ccccc3CC2O1 (stereo unspecified),"inconclusive: 39.8 µM [inhibitor, single point]"
11,CCOc1ccccc1C(=O)Nc1cccc(-c2ccc3nncn3n2)c1,"inconclusive: 79.4 µM [inhibitor, partial curve, poor fit]"
12,CC(C)CCN1C(=O)c2ccc(C(=O)Nc3ccccn3)cc2C1=O,"inconclusive: 100 µM [inhibitor, single point]"
13,O=C(NCCc1nc(-c2ccccc2Cl)no1)c1ccccc1,"inconclusive: 14.1 µM [inhibitor, full curve, poor fit]"
14,Cc1cc(C(=O)CSc2nnc(-c3ccccc3)n2C)c(C)n1C,inactive
15,Clc1ss/c(=N\c2ccccn2)c1Cl,"inconclusive: 10 µM [inhibitor, partial curve, poor fit]"
16,O=C(NCc1ccc(F)cc1)c1cc(-c2ccc(Cl)cc2)n[nH]1,inactive
17,O=C(CSc1nc(=O)n2cc(Cl)ccc2n1)Nc1ccc2c(c1)OCO2,"inconclusive: 50.1 µM [inhibitor, partial curve]"
18,C=CCC[C@@H](Cc1ccc(F)cc1)C(=O)O[C@H](CNC(=O)[C@@H](CC=C)CC(=O)N[C@H](CO)Cc1ccccc1)c1ccccc1,"inconclusive: 11.2 µM [inhibitor, partial curve]"
19,CCC(C)(O)c1[nH]c2ccc(C(F)(F)F)cc2c1C (stereo unspecified),"inconclusive: 39.8 µM [inhibitor, single point]"
20,CCN(C(=O)COC(=O)CNC(=O)c1cccs1)c1c(N)n(Cc2ccccc2)c(=O)[nH]c1=O,"inconclusive: 5.01 µM [inhibitor, full curve, poor fit]"
21,Cc1cc2ccccc2c[n+]1C,inactive
22,CCCCOc1cccc(C(=O)N(Cc2cccs2)c2ccc(OC)cc2)c1,"inconclusive: 79.4 µM [inhibitor, single point]"

# Looked up above:
# Entry of `Cc1cc2ccccc2c[n+]1C` under Potency: inactive
# Entry of `O=C(O)C1Nc2ccc(Br)cc2C2C=CCC12` (stereo unspecified) under Potency: inconclusive: 1.78 µM [inhibitor, full curve, poor fit]
# Entry of `N#Cc1nc(-c2ccccc2F)oc1NCc1cccc2c1OCO2` under Potency: inconclusive: 50.1 µM [inhibitor, partial curve, poor fit]
# Entry of `CCC(C)(O)c1[nH]c2ccc(C(F)(F)F)cc2c1C` (stereo unspecified) under Potency: inconclusive: 39.8 µM [inhibitor, single point]
# Entry of `N#CC(C#N)=C1C=C2C=C(N3CCCCC3)CCC2CC1` (stereo unspecified) under Potency: inconclusive: 15.8 µM [inhibitor, full curve, poor fit]

# (more compounds)

row,Compound,Potency
1,Cc1cc(N2CCN(C3CCCCC3)CC2)n2nc(C)nc2n1,"inconclusive: 79.4 µM [inhibitor, single point]"
2,CN(C)/C=C/C(=O)c1ccc(-c2ccc(Cl)cc2Cl)o1,inactive
3,CCOC(=O)Cc1csc(NC(=O)NC2(C(F)(F)F)Oc3cc(Cl)c(Cl)cc3O2)n1,inactive
4,COc1ccc(OC)c(/C=C/C(=O)Nc2ccc(C(=O)OCCC(C)C)cc2)c1,inactive
5,CCCCN(CCCC)C(=O)C1CCN(S(=O)(=O)c2cccc3nsnc23)CC1,"inconclusive: 39.8 µM [inhibitor, partial curve, poor fit]"
6,CCCc1c(C(=O)NNc2cccc(Cl)c2)cnn1-c1ccccc1,"inconclusive: 12.6 µM [inhibitor, full curve, poor fit]"
7,CC1CCN(c2nc(-c3ccco3)c3c(c2C#N)CC(C)(C)OC3)CC1,"inconclusive: 12.6 µM [inhibitor, partial curve, poor fit]"
8,CCN(CC)C(=O)CSc1nc2ccc(NC(=O)CSc3nnc(COc4ccccc4C)n3C)cc2s1,"inconclusive: 5.62 µM [inhibitor, partial curve, poor fit]"
9,CCCCn1cnc2c(c1=O)c1nc3ccccc3nc1n2Cc1ccc2c(c1)OCO2,"inconclusive: 89.1 µM [inhibitor, single point]"
10,Cc1nn(C2CCCCC2)c(N)c1-c1ccccc1,"inconclusive: 8.91 µM [inhibitor, full curve, poor fit]"
11,CCCN(CCC)CCCNC(=O)c1cn(C)c2ccc(S(=O)(=O)N(C)C3CCCCC3)cc2c1=O,inactive
12,COCCNC(=O)CSc1ccccc1C(=O)NC1CCSc2ccccc21 (stereo unspecified),"inconclusive: 50.1 µM [inhibitor, partial curve, poor fit]"
13,Cc1ccc(C)c2sc(N3CCN(C(=O)C(C)(C)C)CC3)nc12,"inconclusive: 0.631 µM [inhibitor, full curve, poor fit]"
14,COc1ccc(C(=O)NCCS(=O)(=O)NCc2ccco2)cc1,"inconclusive: 17.8 µM [inhibitor, partial curve]"
15,O=C(NNC(=O)c1ccccc1O)c1cccc(Br)c1,inactive
16,O=C(Nc1cccc(-c2cn3ccccc3n2)c1)c1cc2ccccc2oc1=O,"inconclusive: 8.91 µM [inhibitor, full curve, poor fit]"
17,COc1cc(/C=N/Nc2nnc3c(n2)[nH]c2ccccc23)ccc1O,active: 39.8 µM
18,COc1ccc(-n2nnnc2SCC(=O)c2cc3ccccc3o2)cc1,"inconclusive: 22.4 µM [inhibitor, partial curve, poor fit]"
19,O=C(OCc1nnc(-c2ccccc2)o1)C1CC(=O)N(Cc2ccco2)C1 (stereo unspecified),"inconclusive: 8.91 µM [inhibitor, full curve]"
20,COc1ccc(S(=O)(=O)N2N=C(c3ccc(NS(C)(=O)=O)cc3)CC2c2ccco2)cc1 (stereo unspecified),"inconclusive: 8.91 µM [inhibitor, full curve, poor fit]"
21,Cc1c(C(=O)NCc2ccccc2)oc2c1-c1[nH]ncc1CC2,inactive
22,O=C(Nc1ccccc1)[C@@H]1CC=C[C@@H]2CCN(C3CC3)C(=O)[C@@H]21,inactive

row,Compound,Potency
1,CCOc1ccccc1C1Nc2ccccc2-c2nnc(SCc3ccccc3)nc2O1 (stereo unspecified),inactive
2,O=C(Nc1ccc(N2CCCCC2)cc1)c1ccc([N+](=O)[O-])o1,active: 39.8 µM
3,O=C1CNC(=O)/C(=C/c2ccco2)N1,"inconclusive: 12.6 µM [inhibitor, single point]"
4,CCc1ccc2c(c1)C1(C(=O)N2)N2CCCC2C(C(=O)c2ccc3ccccc3c2)C12C(=O)Nc1ccccc12 (stereo unspecified),"inconclusive: 89.1 µM [inhibitor, single point]"
5,COc1ccc(Br)cc1CNC(=O)c1ccc(-n2c(C)cc3c2CCC(C)C3)cc1 (stereo unspecified),inactive
6,Cc1cc(NC(=O)CCC(=O)N(CC(=O)NC2CCCC2)Cc2ccc(F)cc2)no1,"inconclusive: 112 µM [inhibitor, partial curve, poor fit]"
7,COc1ccc(-c2cc3ccccc3oc2=O)cc1NC(=O)c1cccnc1,"inconclusive: 35.5 µM [inhibitor, partial curve, poor fit]"
8,O=C(Nc1ccc2nsnc2c1)N1CCCCC1,"inconclusive: 14.1 µM [inhibitor, full curve, poor fit]"
9,CCc1ccc(CNC(=O)c2sc3ncnc(N(C)C4CCCCC4)c3c2C)cc1,inactive
10,O=S(=O)(Nc1cc(Br)cc2cccnc12)c1ccccc1,inactive
11,Cc1cc(NS(=O)(=O)c2ccccc2)n(-c2ccccc2)n1,"inconclusive: 8.91 µM [inhibitor, full curve, poor fit]"
12,COc1ccc(Nc2cc(C)nc3ccc(OC)cc23)cc1,"inconclusive: 17.8 µM [inhibitor, full curve, poor fit]"
13,Cc1ccc(C(=O)Nc2ccc(N3CCN(S(C)(=O)=O)CC3)cc2)cc1C,"inconclusive: 8.91 µM [inhibitor, full curve]"
14,COc1ccc(NC(C)=O)cc1S(=O)(=O)N1CCN(Cc2cccs2)CC1,"inconclusive: 89.1 µM [inhibitor, single point]"
15,COc1cccc(-c2ccc3ncnc(NCc4ccc5c(c4)OCO5)c3c2)c1,"inconclusive: 44.7 µM [inhibitor, full curve, poor fit]"
16,COc1cc(C(CCN2CCCC2)c2c(OC)cc(OC)c3c(-c4ccccc4)cc(=O)oc23)cc(OC)c1OC (stereo unspecified),"inconclusive: 17.8 µM [inhibitor, single point]"
17,COc1ccc(N=C2C(=Nc3ccc(OC)cc3)N(c3ccc(N(C)C)cc3)C(=S)N2c2ccc(OC)cc2)cc1,"inconclusive: 89.1 µM [inhibitor, single point]"
18,COc1ccc(CCNC(=O)c2cc3c(=O)[nH]c4ccc(C)cc4c3s2)cc1OC,inactive
19,NC(=O)CC(NC(=O)c1ccccc1)c1ccc(NCCCN2CCCC2=O)c([N+](=O)[O-])c1 (stereo unspecified),"inconclusive: 89.1 µM [inhibitor, single point]"
20,O=C(NCCCN1CCOCC1)C(C(=O)NCCCN1CCOCC1)c1ncc(C(F)(F)F)cc1Cl,inactive
21,Cc1cc(C)n(-c2ccc(C(=O)N3CCN(S(=O)(=O)c4ccc(Cl)cc4)CC3)cc2)n1,inactive
22,COc1ccc(CN(CCC(c2ccco2)C(C)C)C(C)=O)cc1OC (stereo unspecified),"inconclusive: 14.1 µM [inhibitor, partial curve, poor fit]"
